{"sequences": {"note": "Sequences of proteins named here, by UniProt entry; tags and fusion partners are left off. Residues count along the entry.", "UniProt P55085, residues 37-397": "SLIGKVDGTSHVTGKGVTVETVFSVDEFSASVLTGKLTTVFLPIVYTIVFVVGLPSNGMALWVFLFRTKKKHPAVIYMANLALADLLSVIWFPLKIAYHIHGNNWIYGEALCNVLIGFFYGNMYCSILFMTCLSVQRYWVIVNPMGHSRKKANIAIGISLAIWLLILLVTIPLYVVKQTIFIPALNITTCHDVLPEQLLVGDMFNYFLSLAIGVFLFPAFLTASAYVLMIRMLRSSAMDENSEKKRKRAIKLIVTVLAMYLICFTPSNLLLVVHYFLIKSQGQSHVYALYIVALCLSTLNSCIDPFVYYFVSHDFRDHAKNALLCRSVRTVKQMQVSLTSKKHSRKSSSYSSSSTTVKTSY", "UniProt P32121": "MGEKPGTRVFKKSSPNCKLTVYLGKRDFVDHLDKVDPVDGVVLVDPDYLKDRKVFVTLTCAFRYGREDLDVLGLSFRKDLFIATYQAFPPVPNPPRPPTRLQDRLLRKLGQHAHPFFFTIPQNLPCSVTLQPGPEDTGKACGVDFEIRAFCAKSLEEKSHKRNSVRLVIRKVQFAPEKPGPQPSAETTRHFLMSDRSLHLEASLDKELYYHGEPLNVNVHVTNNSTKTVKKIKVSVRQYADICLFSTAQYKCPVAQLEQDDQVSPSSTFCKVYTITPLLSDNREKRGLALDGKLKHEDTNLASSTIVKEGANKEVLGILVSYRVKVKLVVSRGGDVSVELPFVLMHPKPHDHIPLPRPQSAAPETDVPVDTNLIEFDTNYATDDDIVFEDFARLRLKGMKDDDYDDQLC"}, "source": "paper PMC7747594", "about": "“Protease-activated receptor-2 ligands reveal orthosteric and allosteric mechanisms of receptor inhibition” (Communications Biology, 2020)", "molecular_target": "human PAR2 in U2OS-hPAR2 cells (DiscoverX/Eurofins) (human) (UniProt P55085)", "experiment": "split reporter; DiscoverX β-arrestin-2 recruitment assay based on enzyme complementation in U2OS-hPAR2 cells; agonist (AZ2429, GB110, SLIGKV-NH2 or SLIGRL-NH2) 90 min at 37 °C; chemiluminescence", "note": "These are yes or no findings as the source states them, for the method shown. Binding seen in cells or lysates may run through a third protein. Some entries that bind do so weakly or less than the wild type."}
{"substance": "β-arrestin-2 (from UniProt P32121 1-409)", "values": [{"measurement": "binding", "value": "binds"}]}
